The test system of the test is P388 leukemia ip, CD2F1 mice, survival T/C. In words: NCI In Vivo Anticancer Drug Screen. Data for tumor model P388 Leukemia (intraperitoneal) in CD2F1 (CDF1) mice. To be noted: T/C endpoint: median survival time, higher T/C = longer survival.
Setting [1] is: dose: 50.0 mg/kg/injection, schedule: Q01DX009 (ip), vehicle: saline with Tween-80.
Setting [2] is: dose: 200.0 mg/kg/injection, schedule: Q01DX009 (ip), vehicle: saline with Tween-80.
Where [3] appears, read: dose: 200.0 mg/kg/injection, schedule: Q01DX005 (ip), vehicle: Klucel (hydroxypropylcellulose) (HPC).
The mark [4] stands for this setting: dose: 12.5 mg/kg/injection, schedule: Q01DX009 (ip), vehicle: other.
[5] abbreviates: dose: 50.0 mg/kg/injection, schedule: Q01DX009 (ip), vehicle: water.
Setting [6] is: dose: 100.0 mg/kg/injection, schedule: Q01DX005 (ip), vehicle: saline.
Where [7] appears, read: dose: 60.0 mg/kg/injection, schedule: Q01DX005 (ip), vehicle: saline with Tween-80.
Where [8] appears, read: dose: 120.0 mg/kg/injection, schedule: Q01DX005 (ip), vehicle: saline with Tween-80.
The mark [9] stands for this setting: dose: 50.0 mg/kg/injection, schedule: Q01DX005 (ip), vehicle: saline with Tween-80.
The mark [10] stands for this setting: dose: 200.0 mg/kg/injection, schedule: Q01DX005 (ip), vehicle: saline with Tween-80.

The list is a part of this screen's results and no random one: it is rich in T/C values a quarter to a half above the control, in often repeated tests (any T/C) and in doses without a T/C. Further doses and runs are listed elsewhere. T/C gives the treated animals as a percentage of the vehicle group. Some doses have a count of surviving animals in place of a T/C: the source files T/C as zero there, which appears to mark a toxic dose or a test without result, not a measured value. Some doses without a T/C left all or most animals alive at the check, yet need not have been tolerated: survival well below the control is almost never listed, so the zero probably covers shortened survival too. Counts of survivors are from the toxicity check (mostly the fifth day) where no day follows; animals may have died later. Schedule codes are those of the source, taken here to give the interval after Q, in days (D) or hours (H), and the number of doses after X. For survival time, this PubChem deposit counts one and a half times the control or more as active, and values a quarter to a half above the control carry no call in these data; other NCI protocols may use other cut-offs. Some entries hold several experiments; the results are listed from low to high. Some T/C values carry the count of animals alive at the toxicity check (mostly the fifth day); without a count, all were alive then.

Regarding `C[N+](C)(C)C[c-]1[c-][c-][c-][c-]1.[Fe].[c-]1[c-][c-][cH-][c-]1`, the survivor count runs as follows: (dose: 25.0 mg/kg/injection, schedule: Q01DX009 (ip), vehicle: saline with Tween-80) 0 of 6; under setting [1], 0 of 6; (dose: 100.0 mg/kg/injection, schedule: Q01DX009 (ip), vehicle: saline with Tween-80) 0 of 6; under setting [2], 0 of 6.
On to `[CH3][Sn]([CH3])([N](c1ccccn1)c1ccccn1)[N](c1ccccn1)c1ccccn1`, for which, under setting [3], the survivor count was 2 of 6.
`CC(C)(C)CC(C)(C)NCC(O)COc1ccc(C(C)(C)c2ccc(OCC(O)CNC(C)(C)CC(C)(C)C)cc2)cc1` (stereo not drawn): the survivor count by setting is: under setting [4], 5 of 6; (dose: 12.5 mg/kg/injection, schedule: Q04DX003 (ip), vehicle: other) 6 of 6; (dose: 25.0 mg/kg/injection, schedule: Q01DX009 (ip), vehicle: other) 2 of 6; (dose: 25.0 mg/kg/injection, schedule: Q04DX003 (ip), vehicle: other) 6 of 6; (dose: 50.0 mg/kg/injection, schedule: Q04DX003 (ip), vehicle: other) 3 of 6.
For the compound `O=[N+]([O-])c1ccc(-c2csc(=[N+]3CCCCC3)s2)cc1`, the T/C by setting is: (dose: 12.5 mg/kg/injection, schedule: Q01DX009 (ip), vehicle: water) 126 % of control; (dose: 25.0 mg/kg/injection, schedule: Q01DX009 (ip), vehicle: water) 133 and 137 % of control; under setting [5], 140 % of control. Further, the survivor count runs as follows: under setting [5], 5 of 6; (dose: 100.0 mg/kg/injection, schedule: Q01DX009 (ip), vehicle: water) 1 of 6.
As to `CC(C)N1COC2Cc3ccccc3CC21` (stereo not drawn), the survivor count is, setting by setting: under setting [6], 0 of 6; (dose: 200.0 mg/kg/injection, schedule: Q01DX005 (ip), vehicle: saline) 0 of 6.
For `c1cc2c(cn1)Sc1cnccc1N2`, the survivor count is recorded as 4 of 4 (dose: 12.5 mg/kg/injection, schedule: Q01DX009 (ip), vehicle: distilled water + Tween-80); 2 of 4 (dose: 50.0 mg/kg/injection, schedule: Q01DX009 (ip), vehicle: distilled water + Tween-80); 0 of 4 (dose: 100.0 mg/kg/injection, schedule: Q01DX009 (ip), vehicle: distilled water + Tween-80).
As to `C/C(=C\c1cc(Cl)ccc1OCC(=O)O)[N+](=O)[O-]`, the survivor count is 3 of 6 (dose: 200.0 mg/kg/injection, schedule: Q01DX001 (ip), vehicle: saline with Tween-80) and 0 of 6 (dose: 400.0 mg/kg/injection, schedule: Q01DX001 (ip), vehicle: saline with Tween-80).
For `CN(C)c1cccc2c(S(=O)(=O)NCCCCCCCCCCCCNS(=O)(=O)c3cccc4c(N(C)C)cccc34)cccc12`, the survivor count is on record as 6 of 6 under setting [7] and 6 of 6 under setting [8].
As for `Cc1cccc(N=Nc2c(-c3ccccc3)nn(C(=S)S)c2C)c1C`, the survivor count (dose: 100.0 mg/kg/injection, schedule: Q01DX001 (ip), vehicle: saline with Tween-80) is 5 of 5.
`CCCNCC(O)COc1ccc2c3c(c(=O)oc2c1)CCC3` (stereo not drawn): the survivor count (dose: 240.0 mg/kg/injection, schedule: Q01DX005 (ip), vehicle: Klucel (hydroxypropylcellulose) (HPC)) is on record as 3 of 6.
Consider `N#CCC(=O)N/N=C(\CC1(O)C(=O)Nc2c(Cl)cc(Cl)cc21)c1cccc2ccccc12` (stereo not drawn), for which the survivor count by setting is: under setting [9], 6 of 6; under setting [10], 5 of 6.
On to `CC(=O)Nc1ccc(C(F)(F)F)cc1`, for which, for the setting “dose: 200.0 mg/kg/injection, schedule: Q01DX009 (ip), vehicle: suspension in saline”, the survivor count is on record as 3 of 6.
In the case of `Nc1ccc2c(=O)[nH]cnc2c1`, the survivor count under setting [3] was 3 of 5.
Regarding `CN(N=O)P(=O)(Nc1ccccc1)Nc1ccccc1`, the survivor count under setting [4] was 6 of 6.
As to `CCCCCCCCCCN(CCCCCCCCCC)C1CC(OC2CC(O)(C(C)O)Cc3c(O)c4c(c(O)c32)C(=O)c2c(OC)cccc2C4=O)OC(C)C1O` (stereo not drawn), where the note is “dose: 150.0 mg/kg/injection, schedule: Q04DX003 (ip), vehicle: water”, the survivor count was 0 of 3.
As to `NNC(=O)CCC(N)C(=O)O` (stereo not drawn), under “dose: 200.0 mg/kg/injection, schedule: Q01DX009 (ip), vehicle: saline sonified”, the survivor count is given as 5 of 6.
Consider `c1ccc(-c2cc3cc4ccccc4cn3c2)cc1`, for which, under setting [2], the T/C is 133 % of control [4 of 5 alive]. In addition, the survivor count (dose: 400.0 mg/kg/injection, schedule: Q01DX009 (ip), vehicle: saline with Tween-80) is on record as 4 of 5 and the survivor count (dose: 600.0 mg/kg/injection, schedule: Q01DX009 (ip), vehicle: saline with Tween-80) is 2 of 5.
As for `C[n+]1ccc(CC(Cc2cc[n+](C)cc2)c2ccc(Br)cc2)cc1`, the survivor count reads like this: (dose: 50.0 mg/kg/injection, schedule: Q01DX009 (ip), vehicle: Klucel (hydroxypropylcellulose) (HPC)) 0 of 6; (dose: 100.0 mg/kg/injection, schedule: Q01DX009 (ip), vehicle: Klucel (hydroxypropylcellulose) (HPC)) 0 of 6; (dose: 200.0 mg/kg/injection, schedule: Q01DX009 (ip), vehicle: Klucel (hydroxypropylcellulose) (HPC)) 0 of 6.
With `O=C(N/C(=C\c1ccccc1)C(=O)N1CCN(Cc2ccccc2)CC1)c1ccccc1`, the survivor count under setting [10] is given as 6 of 6.
With `CC/C(=C\c1ccccc1)[N+](=O)[O-]`, the survivor count under setting [1] is reported as 6 of 6.
As for `COC(C(=O)C1=C2Oc3c4c(cc(O)c3C(=O)C2C2=C(CCCC2)C1=O)OC(C)(C)C=C4)C(C)CCC=C(C)C` (stereo not drawn), the T/C under setting [6] is 126 % of control.
With `CC(=O)OC1C2C(OC3OC(=O)/C(=C\C=C4\CCCC(C)(C)C4)C32)O[C@H]1OC(C)=O` (stereo partly drawn), for the setting “dose: 50.0 mg/kg/injection, schedule: Q01DX005 (ip), vehicle: Klucel (hydroxypropylcellulose) (HPC)”, the survivor count is given as 6 of 6.
With `CC(C)(C#N)Nc1ccccc1`, the survivor count (dose: 12.5 mg/kg/injection, schedule: Q04DX003 (ip), vehicle: saline with Tween-80) was 0 of 6.
For the compound `COc1ccc(C(CC(=O)O)CC(=O)N(CCCl)CCCl)cc1` (stereo not drawn), the T/C runs as follows: (dose: 100.0 mg/kg/injection, schedule: Q01DX001 (ip), vehicle: suspension in saline) 146 % of control; (dose: 200.0 mg/kg/injection, schedule: Q01DX001 (ip), vehicle: suspension in saline) 140 % of control. In addition, the survivor count (dose: 400.0 mg/kg/injection, schedule: Q01DX001 (ip), vehicle: suspension in saline) was 0 of 6.
For the compound `Cn1c2c(c3cc(Cl)ccc31)-c1ncncc1CC2`, the survivor count is listed as 5 of 5 (dose: 200.0 mg/kg/injection, schedule: Q04DX002 (ip), vehicle: Klucel (hydroxypropylcellulose) (HPC)) and 5 of 5 (dose: 400.0 mg/kg/injection, schedule: Q04DX002 (ip), vehicle: Klucel (hydroxypropylcellulose) (HPC)).
Consider `Cc1cc2nc(CC(=O)c3cccnc3)c(=O)[nH]c2cc1C`, for which the survivor count by setting is: under setting [7], 6 of 6; under setting [8], 6 of 6; (dose: 240.0 mg/kg/injection, schedule: Q01DX005 (ip), vehicle: saline with Tween-80) 3 of 6.
As for `CC(C)(C)SCC(NC(=O)OCC1c2ccccc2-c2ccccc21)C(=O)O` (stereo not drawn), under setting [3], the survivor count was 0 of 6.
Regarding `CC1=C(C)C(=O)c2c(c(O)c3ccccc3c2Cl)C1=O`, the survivor count runs as follows: (dose: 6.25 mg/kg/injection, schedule: Q01DX005 (ip), vehicle: saline) 6 of 6; (dose: 12.5 mg/kg/injection, schedule: Q01DX005 (ip), vehicle: saline) 6 of 6; (dose: 25.0 mg/kg/injection, schedule: Q01DX005 (ip), vehicle: saline) 6 of 6; under setting [9], 6 of 6; (dose: 100.0 mg/kg/injection, schedule: Q01DX005 (ip), vehicle: saline with Tween-80) 6 of 6.

The values above are taken from PubChem BioAssay AID330 (DTP/NCI, 2004).
